Data: patent publication US6664231B1, “Anti-fungal peptides” (priority 1993, dated 2003)
Part of at least one peptide drawing is inferred or uncertain, most often the ends. Bridge positions count the residues as written; N and C are the ends. Square brackets hold non-standard residues; d marks the D form. Peptide text beside a SMILES is read from it.

System: mouse RAW 264.7 cells
Settings: RAW 264.7 cell growth inhibited by 50%
Procedure: An in vitro LPS neutralization screening assay for evaluation of Domain III derived peptides was developed (as described in co-owned and co-pending U.S. patent application Ser. No. 08/306,473) which provides both a measure of efficacy of each peptide (EC50) and of the toxicity/growth inhibition of each peptide (IC50).
The cells were counted and their concentration adjusted to 2×10^5 cells/mL and 100 μL aliquots were added to each well of a 96-well microtitre plate. […] This incubation was performed in the absence or presence of peptides in varying concentrations between 25 ng/mL and 50 μg/mL. […] Cell proliferation was quantitatively measured by the addition of 1 μCi/well [^3H]-thymidine 5 hours after the time of initiation of the assay. After the 15-hour incubation, labeled cells were harvested onto glass fiber filters with a cell harvester (Inotech Biosystems, INB-384, Sample Processing and Filter Counting System, Lansing, Mich.).

| SMILES | IC50 (toxicity/growth inhibition of peptide) |
| --- | --- |
| CC[C@H](C)[C@@H]1NC(=O)[C@H](CC(C)C)NC(=O)[C@@H](NC(=O)[C@H](N)CCCCN)CSSC[C@@H](C(=O)N[C@H](CCCCN)C(N)=O)NC(=O)[C@H](Cc2ccccc2)NC(=O)[C@H](CC(C)C)NC(=O)[C@H](CCC(N)=O)NC1=O [XMP.361P] (H-[dK]CLIQLFC[dK]-NH2; disulfide 2-8 (inferred); N-terminus and C-terminus assumed) | NA (NA for IC50 means no evidence of decreased RAW cell growth at up to 50 μg/ml) |
| CC[C@H](C)[C@@H]1NC(=O)[C@H](CC(C)C)NC(=O)[C@@H](NC(=O)[C@H](CCCCN)NC(=O)[C@H](N)CCCCN)CSSC[C@@H](C(=O)N[C@@H](CCCCN)C(=O)N[C@H](CCCCN)C(N)=O)NC(=O)[C@H](Cc2ccccc2)NC(=O)[C@H](CC(C)C)NC(=O)[C@H](CCC(N)=O)NC1=O [XMP.362P] (H-[dK]KCLIQLFCK[dK]-NH2; disulfide 3-9 (inferred); N-terminus assumed) | NA (NA for IC50 means no evidence of decreased RAW cell growth at up to 50 μg/ml) |
